Results reported in PMC10252889.

Sequences of proteins named here, by UniProt entry; tags and fusion partners are left off. A change or cut given only in a name is not applied to a line headed by its entry.
UniProt Q8BUW1: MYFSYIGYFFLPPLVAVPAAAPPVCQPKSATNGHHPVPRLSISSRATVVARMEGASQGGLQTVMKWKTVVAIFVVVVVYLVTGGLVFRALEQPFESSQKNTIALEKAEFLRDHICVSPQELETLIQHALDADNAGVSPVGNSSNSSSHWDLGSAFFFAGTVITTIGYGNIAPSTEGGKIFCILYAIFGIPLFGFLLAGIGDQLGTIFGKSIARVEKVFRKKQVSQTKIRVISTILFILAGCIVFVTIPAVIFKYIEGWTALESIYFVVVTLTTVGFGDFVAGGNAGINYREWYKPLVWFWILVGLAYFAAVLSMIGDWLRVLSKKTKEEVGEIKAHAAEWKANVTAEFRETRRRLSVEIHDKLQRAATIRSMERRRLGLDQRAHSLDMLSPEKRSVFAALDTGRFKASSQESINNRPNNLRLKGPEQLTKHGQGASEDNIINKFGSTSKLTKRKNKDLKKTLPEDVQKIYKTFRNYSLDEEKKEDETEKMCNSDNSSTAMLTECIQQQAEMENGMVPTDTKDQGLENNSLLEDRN

Key:
[1] = biological target: VC-tagged TREK2ΔC (TREK2 C-terminus deletion mutant) (mouse); assay: split reporter; BiFC with split Venus (VN-tagged β-COP, VC-tagged channel) in co-transfected HEK293T cells, 24 h, fixed with 4% paraformaldehyde, confocal microscopy
[2] = biological target: VC-tagged TREK2ΔN (TREK2 N-terminal deletion mutant) (mouse); assay: as above
[3] = biological target: VC-tagged TREK2RRRAAA (mouse) (UniProt Q8BUW1); assay: as above
[4] = biological target: VC-tagged TREK2ΔC3 (TREK2 lacking the third quarter of the C-terminal region) (mouse) (UniProt Q8BUW1); assay: as above
[5] = biological target: VC-tagged TREK2ΔC4 (TREK2 lacking the fourth quarter of the C-terminal region) (mouse); assay: as above
[6] = biological target: VC-tagged TREK2ΔC2 (TREK2 lacking the second quarter of the C-terminal region) (mouse) (UniProt Q8BUW1); assay: as above
[7] = biological target: VC-tagged TREK2ΔC1 (TREK2 lacking the first quarter of the C-terminal region) (mouse) (UniProt Q8BUW1); assay: as above
[8] = biological target: Flag-tagged TREK2RRRAAA (AAA substituted for RRR in the TREK2 C2 segment) (mouse) (UniProt Q8BUW1); assay: co-IP; HEK293T cells co-transfected with Flag-tagged channel and GFP-β-COP; lysate immunoprecipitated with anti-Flag overnight at 4 °C, Protein G agarose, blotted with anti-GFP
[9] = biological target: GFP-tagged TREK2ΔC4 (mouse); assay: co-IP; HEK293T cells co-transfected with GFP-tagged TREK2 or its deletion mutants and mCh-β-COP; lysate immunoprecipitated with anti-GFP overnight at 4 °C, Protein G agarose, blotted with anti-mCh (anti-RFP)
[10] = biological target: GFP-tagged TREK2ΔC2 (mouse) (UniProt Q8BUW1); assay: as above
[11] = biological target: GFP-tagged TREK2ΔC3 (mouse) (UniProt Q8BUW1); assay: as above
[12] = biological target: GFP-tagged TREK2ΔN (TREK2 N-terminal deletion mutant) (mouse); assay: as above
[13] = biological target: GFP-tagged TREK2ΔC (TREK2 C-terminus deletion mutant) (mouse); assay: as above
[14] = biological target: GFP-tagged TREK2ΔC1 (mouse) (UniProt Q8BUW1); assay: as above

binding [1]: no binding
binding [2]: binds
binding [3]: no binding
binding [4]: binds
binding [5]: binds
binding [6]: no binding
binding [7]: binds
B1: VN-tagged β-COP (β-coat protein) (protein, UniProt Q9JIF7 1-953)
chain: MTAAENVCYTLINVPMDSEPPSEISLKNDLEKGDVKSKTEALKKVIIMILNGEKLPGLLMTIIRFVLPLQDHTIKKLLLVFWEIVPKTTPDGRLLHEMILVCDAYRKDLQHPNEFIRGSTLRFLCKLKEAELLEPLMPAIRACLEHRHSYVRRNAVLAIYTIYRNFEHLIPDAPELIHDFLVNEKDASCKRNAFMMLIHADQDRALDYLSTCIDQVQTFGDILQLVIVELIYKVCHANPSERARFIRCIYNLLQSSSPAVKYEAAGTLVTLSSAPTAIKAAAQCYIDLIIKESDNNVKLIVLDRLVELKEHPAHERVLQDLVMDILRVLSTPDLEVRKKTLQLALDLVSSRNVEELVIVLKKEVIKTNNVSEHEDTDKYRQLLVRTLHSCSVRFPDMAANVIPVLMEFLSDSNEAAAADVLEFVREAIQRFDNLRMLIVEKMLEVFHAIKSVKIYRGALWILGEYCSTKEDIQSVMTEVRRSLGEIPIVESEIKKEAGELKPEEEITVGPVQKLVTEMGTYATQSALSSSRPTKKEEDRPPLRGFLLDGDFFVAASLATTLTKIALRYVALVQEKKKQNSFVAEAMLLMATILHLGKSSLPKKPITDDDVDRISLCLKVLSECSPLMNDIFNKECRQSLSQMLSAKLEEEKLSQKKESEKRNVTVQPDDPISFMQLTAKNEMNCKEDQFQLSLLAAMGNTQRKEAADPLASKLNKVTQLTGFSDPVYAEAYVHVNQYDIVLDVLVVNQTSDTLQNCTLELATLGDLKLVEKPSPLTLAPHDFANIKANVKVASTENGIIFGNIVYDVSGAASDRNCVVLSDIHIDIMDYIQPATCTDAEFRQMWAEFEWENKVTVNTNMTDLNDYLQHILKSTNMKCLTPEKALSGYCGFMAANLYARSIFGEDALANVSIEKPVHQGPDAAVTGHIRIRAKSQGMALSLGDKINLSQKKTSL

binding [8]: no binding
B2: GFP-tagged β-COP (protein, UniProt Q9JIF7 1-953)
chain: MTAAENVCYTLINVPMDSEPPSEISLKNDLEKGDVKSKTEALKKVIIMILNGEKLPGLLMTIIRFVLPLQDHTIKKLLLVFWEIVPKTTPDGRLLHEMILVCDAYRKDLQHPNEFIRGSTLRFLCKLKEAELLEPLMPAIRACLEHRHSYVRRNAVLAIYTIYRNFEHLIPDAPELIHDFLVNEKDASCKRNAFMMLIHADQDRALDYLSTCIDQVQTFGDILQLVIVELIYKVCHANPSERARFIRCIYNLLQSSSPAVKYEAAGTLVTLSSAPTAIKAAAQCYIDLIIKESDNNVKLIVLDRLVELKEHPAHERVLQDLVMDILRVLSTPDLEVRKKTLQLALDLVSSRNVEELVIVLKKEVIKTNNVSEHEDTDKYRQLLVRTLHSCSVRFPDMAANVIPVLMEFLSDSNEAAAADVLEFVREAIQRFDNLRMLIVEKMLEVFHAIKSVKIYRGALWILGEYCSTKEDIQSVMTEVRRSLGEIPIVESEIKKEAGELKPEEEITVGPVQKLVTEMGTYATQSALSSSRPTKKEEDRPPLRGFLLDGDFFVAASLATTLTKIALRYVALVQEKKKQNSFVAEAMLLMATILHLGKSSLPKKPITDDDVDRISLCLKVLSECSPLMNDIFNKECRQSLSQMLSAKLEEEKLSQKKESEKRNVTVQPDDPISFMQLTAKNEMNCKEDQFQLSLLAAMGNTQRKEAADPLASKLNKVTQLTGFSDPVYAEAYVHVNQYDIVLDVLVVNQTSDTLQNCTLELATLGDLKLVEKPSPLTLAPHDFANIKANVKVASTENGIIFGNIVYDVSGAASDRNCVVLSDIHIDIMDYIQPATCTDAEFRQMWAEFEWENKVTVNTNMTDLNDYLQHILKSTNMKCLTPEKALSGYCGFMAANLYARSIFGEDALANVSIEKPVHQGPDAAVTGHIRIRAKSQGMALSLGDKINLSQKKTSL

binding [9]: binds
binding [10]: no binding
binding [11]: binds
binding [12]: binds
binding [13]: no binding
binding [14]: binds
B3: mCherry-tagged β-COP (protein, UniProt Q9JIF7 1-953)
chain: MTAAENVCYTLINVPMDSEPPSEISLKNDLEKGDVKSKTEALKKVIIMILNGEKLPGLLMTIIRFVLPLQDHTIKKLLLVFWEIVPKTTPDGRLLHEMILVCDAYRKDLQHPNEFIRGSTLRFLCKLKEAELLEPLMPAIRACLEHRHSYVRRNAVLAIYTIYRNFEHLIPDAPELIHDFLVNEKDASCKRNAFMMLIHADQDRALDYLSTCIDQVQTFGDILQLVIVELIYKVCHANPSERARFIRCIYNLLQSSSPAVKYEAAGTLVTLSSAPTAIKAAAQCYIDLIIKESDNNVKLIVLDRLVELKEHPAHERVLQDLVMDILRVLSTPDLEVRKKTLQLALDLVSSRNVEELVIVLKKEVIKTNNVSEHEDTDKYRQLLVRTLHSCSVRFPDMAANVIPVLMEFLSDSNEAAAADVLEFVREAIQRFDNLRMLIVEKMLEVFHAIKSVKIYRGALWILGEYCSTKEDIQSVMTEVRRSLGEIPIVESEIKKEAGELKPEEEITVGPVQKLVTEMGTYATQSALSSSRPTKKEEDRPPLRGFLLDGDFFVAASLATTLTKIALRYVALVQEKKKQNSFVAEAMLLMATILHLGKSSLPKKPITDDDVDRISLCLKVLSECSPLMNDIFNKECRQSLSQMLSAKLEEEKLSQKKESEKRNVTVQPDDPISFMQLTAKNEMNCKEDQFQLSLLAAMGNTQRKEAADPLASKLNKVTQLTGFSDPVYAEAYVHVNQYDIVLDVLVVNQTSDTLQNCTLELATLGDLKLVEKPSPLTLAPHDFANIKANVKVASTENGIIFGNIVYDVSGAASDRNCVVLSDIHIDIMDYIQPATCTDAEFRQMWAEFEWENKVTVNTNMTDLNDYLQHILKSTNMKCLTPEKALSGYCGFMAANLYARSIFGEDALANVSIEKPVHQGPDAAVTGHIRIRAKSQGMALSLGDKINLSQKKTSL

No constants are given. Whether binding was seen depends on the method and setting. Binding seen in cells or lysates may run through a third protein. For some assays here: Binding calls can cover weak binding; strength is not graded here. Tags and fused reporters may be left off the sequences shown. One block for each binder: values may come before it.
